Measured values published in doi:10.1101/867788.
These are yes or no findings as the source states them, for the method shown. In cells and extracts the contact can be indirect. Here binding means that the protein was enriched with, or labelled near, the bait; the list need not be complete. No binding means not detected with the bait.

Molecular target: MYR1-3xHA (Toxoplasma gondii)
Assay: affinity purification with mass spectrometry

Row | Binder | binding
1 | GRA7 (TGGT1_203310) (protein, UniProt O00933 27-236) ATASDDELMSRIRNSDFFDGQAPVDSLRPTNAGVDSKGTDDHLTTSMDKASVESQLPRREPLETEPDEQEEVHFRKRGVRSDAEVTDDNIYEEHTDRKVVPRKSEGKRSFKDLLKKLALPAVGMGASYFAADRLVPELTEEQQRGDEPLTTGQNVGTVLGFAALAAAAAFLGMGLTRTYRHFSPRKNRSRQPALEQEVPESGEDGEDARQ | binds
2 | ROP17 (protein, UniProt Q2PAY3 22-608) LLLRSPTSNDVFGELVASAERAQPLATRLTKRISRLNFNDREDDFWEDHGDASWNNSYTLVNGRTTLGSENRRRPASHSLIERPYYRDGRLSPVLGVQERRGRSVHSYHEEPVSFFDQRAFDEYTFRRRSQLHRQRARAGLRSRIKQNVRRLWTSARGAVRGWGRRVRRKIGDLFVGHLMPQLRRLRFWDQGLPPVVPPLIGNEPGQASVALVAERMEARLREKTLTEKNPTEAQQAVGTYLINSAENTWFISIPGGRYILLKKRGFLGGGGFGLVYHVEHPTTGQPFALKIFVQRVMNNEVGDKISDLIEDEFGVMKYFPPEWTPARMYSELRFMVPLLKLRVLGKPEFQDARNHLRIFSVCALFPKAQGDLEEAAALLADMDRTNAYNMRMSSTIQMVKLLARFHAFGLVHGDVKLQNFLVDKSGLLLLSDFTQILRTNERRYPPVVTVLYMSPEIATCLITRLRNAIPYTAEIDSWMLGISLYRLWCGDFPFGITLDATALQVAGIVIRSSASSLDFASCHDIPEQFREMIVGFLRKTPGVRLSPQQALEQFSLLNWKGPSPASDTASESEPVSTEEAALLQKE | no binding
